From patent US20250346642A1, “NEW SPLICE VARIANT ISOFORM OF VEGF” (CENTRE NATIONAL DE LA RECHERCHE SCIENTIFIQUE (CNRS), priority 2020, published 2025)
These are yes or no findings as the source states them, for the method shown. Some binding calls cover weakened binding; strength is not graded here.

Sequences of proteins named here, by UniProt entry; tags and fusion partners are left off. Residues count along the entry.
UniProt P35968, residues 20-764: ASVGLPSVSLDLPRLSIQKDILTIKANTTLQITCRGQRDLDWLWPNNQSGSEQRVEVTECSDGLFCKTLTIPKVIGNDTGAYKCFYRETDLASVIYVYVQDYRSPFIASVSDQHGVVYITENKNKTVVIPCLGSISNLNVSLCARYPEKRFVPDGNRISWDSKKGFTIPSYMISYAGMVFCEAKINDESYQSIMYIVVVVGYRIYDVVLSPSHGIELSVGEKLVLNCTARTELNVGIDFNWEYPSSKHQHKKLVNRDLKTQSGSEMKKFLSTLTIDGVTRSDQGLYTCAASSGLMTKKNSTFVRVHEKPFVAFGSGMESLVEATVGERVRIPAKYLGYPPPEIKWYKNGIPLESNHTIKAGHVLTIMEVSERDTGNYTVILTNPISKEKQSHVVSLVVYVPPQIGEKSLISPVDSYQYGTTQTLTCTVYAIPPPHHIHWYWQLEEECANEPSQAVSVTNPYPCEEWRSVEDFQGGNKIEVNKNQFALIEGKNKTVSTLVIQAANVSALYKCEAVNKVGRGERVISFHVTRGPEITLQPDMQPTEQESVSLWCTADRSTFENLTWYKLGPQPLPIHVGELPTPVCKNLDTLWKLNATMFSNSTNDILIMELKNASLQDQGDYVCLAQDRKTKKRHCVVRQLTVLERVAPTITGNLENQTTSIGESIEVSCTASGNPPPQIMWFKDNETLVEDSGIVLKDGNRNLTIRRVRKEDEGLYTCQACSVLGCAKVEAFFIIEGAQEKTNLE
UniProt P17948, residues 27-756: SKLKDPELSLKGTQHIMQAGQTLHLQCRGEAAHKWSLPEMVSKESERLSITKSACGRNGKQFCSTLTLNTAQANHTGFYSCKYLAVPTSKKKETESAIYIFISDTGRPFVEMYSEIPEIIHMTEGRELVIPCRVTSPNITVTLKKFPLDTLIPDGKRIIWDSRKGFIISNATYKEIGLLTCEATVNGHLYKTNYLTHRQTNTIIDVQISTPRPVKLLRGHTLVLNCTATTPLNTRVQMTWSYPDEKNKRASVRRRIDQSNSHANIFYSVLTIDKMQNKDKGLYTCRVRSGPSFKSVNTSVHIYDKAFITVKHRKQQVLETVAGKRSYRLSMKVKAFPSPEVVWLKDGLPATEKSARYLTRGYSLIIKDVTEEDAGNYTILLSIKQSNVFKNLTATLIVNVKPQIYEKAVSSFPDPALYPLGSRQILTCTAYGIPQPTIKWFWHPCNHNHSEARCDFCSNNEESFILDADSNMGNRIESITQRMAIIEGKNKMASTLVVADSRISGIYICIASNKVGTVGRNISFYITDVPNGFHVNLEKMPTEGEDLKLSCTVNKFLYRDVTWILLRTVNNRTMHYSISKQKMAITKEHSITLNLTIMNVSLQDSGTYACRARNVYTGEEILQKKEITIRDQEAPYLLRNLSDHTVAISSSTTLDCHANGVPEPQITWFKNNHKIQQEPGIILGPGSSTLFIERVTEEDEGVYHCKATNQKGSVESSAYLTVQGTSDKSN
UniProt O60462, residues 23-864: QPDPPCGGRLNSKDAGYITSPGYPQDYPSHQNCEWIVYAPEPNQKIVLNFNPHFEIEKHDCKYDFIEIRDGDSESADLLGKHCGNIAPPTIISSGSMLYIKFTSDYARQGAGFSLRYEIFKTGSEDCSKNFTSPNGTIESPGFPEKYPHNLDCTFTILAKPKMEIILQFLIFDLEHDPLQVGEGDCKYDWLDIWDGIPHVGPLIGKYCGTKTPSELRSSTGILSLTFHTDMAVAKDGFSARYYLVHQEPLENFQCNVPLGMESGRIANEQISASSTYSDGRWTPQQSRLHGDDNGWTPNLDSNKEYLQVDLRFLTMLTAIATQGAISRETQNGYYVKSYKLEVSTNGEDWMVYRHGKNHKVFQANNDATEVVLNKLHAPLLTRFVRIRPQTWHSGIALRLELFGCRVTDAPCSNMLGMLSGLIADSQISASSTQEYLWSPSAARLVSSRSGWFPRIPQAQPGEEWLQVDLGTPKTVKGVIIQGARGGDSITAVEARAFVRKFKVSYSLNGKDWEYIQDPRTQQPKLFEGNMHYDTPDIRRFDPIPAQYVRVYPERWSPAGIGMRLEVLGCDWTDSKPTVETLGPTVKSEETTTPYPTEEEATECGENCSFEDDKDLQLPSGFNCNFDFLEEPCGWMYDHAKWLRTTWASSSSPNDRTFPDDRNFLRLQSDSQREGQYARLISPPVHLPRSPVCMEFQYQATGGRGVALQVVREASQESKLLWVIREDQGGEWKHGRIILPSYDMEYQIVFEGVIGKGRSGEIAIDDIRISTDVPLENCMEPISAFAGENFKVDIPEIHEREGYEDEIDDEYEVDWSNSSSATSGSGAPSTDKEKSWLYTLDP
UniProt O14786, residues 22-644: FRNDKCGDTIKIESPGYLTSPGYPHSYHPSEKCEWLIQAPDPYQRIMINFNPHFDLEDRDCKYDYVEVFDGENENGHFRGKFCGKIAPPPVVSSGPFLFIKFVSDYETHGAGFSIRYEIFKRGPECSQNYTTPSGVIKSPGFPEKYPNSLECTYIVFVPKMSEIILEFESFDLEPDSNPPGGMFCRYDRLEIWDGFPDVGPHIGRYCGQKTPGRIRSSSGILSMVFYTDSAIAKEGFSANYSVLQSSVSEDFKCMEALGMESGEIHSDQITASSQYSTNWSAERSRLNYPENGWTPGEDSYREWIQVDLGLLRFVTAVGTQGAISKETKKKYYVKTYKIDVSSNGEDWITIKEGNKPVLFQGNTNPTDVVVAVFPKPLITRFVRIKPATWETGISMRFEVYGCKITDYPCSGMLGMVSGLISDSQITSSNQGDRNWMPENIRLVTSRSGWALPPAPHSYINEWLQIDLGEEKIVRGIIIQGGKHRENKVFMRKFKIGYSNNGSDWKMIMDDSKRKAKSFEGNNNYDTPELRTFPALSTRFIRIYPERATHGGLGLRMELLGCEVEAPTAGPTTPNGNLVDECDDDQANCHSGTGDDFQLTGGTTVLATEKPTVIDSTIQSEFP

Columns and labels:
VEGFR2 = molecular target: T1, VEGFR2 (UniProt P35968 20-764, limits assumed); experiment: saturation binding experiment (FIG. 5A legend)
T1 construct: also called VEGFR2/KDR

VEGFR3 = molecular target: T2, VEGFR3 (UniProt P35916 25-776, limits assumed); experiment: saturation binding experiment (FIG. 5A legend)
T2 sequence (looked up): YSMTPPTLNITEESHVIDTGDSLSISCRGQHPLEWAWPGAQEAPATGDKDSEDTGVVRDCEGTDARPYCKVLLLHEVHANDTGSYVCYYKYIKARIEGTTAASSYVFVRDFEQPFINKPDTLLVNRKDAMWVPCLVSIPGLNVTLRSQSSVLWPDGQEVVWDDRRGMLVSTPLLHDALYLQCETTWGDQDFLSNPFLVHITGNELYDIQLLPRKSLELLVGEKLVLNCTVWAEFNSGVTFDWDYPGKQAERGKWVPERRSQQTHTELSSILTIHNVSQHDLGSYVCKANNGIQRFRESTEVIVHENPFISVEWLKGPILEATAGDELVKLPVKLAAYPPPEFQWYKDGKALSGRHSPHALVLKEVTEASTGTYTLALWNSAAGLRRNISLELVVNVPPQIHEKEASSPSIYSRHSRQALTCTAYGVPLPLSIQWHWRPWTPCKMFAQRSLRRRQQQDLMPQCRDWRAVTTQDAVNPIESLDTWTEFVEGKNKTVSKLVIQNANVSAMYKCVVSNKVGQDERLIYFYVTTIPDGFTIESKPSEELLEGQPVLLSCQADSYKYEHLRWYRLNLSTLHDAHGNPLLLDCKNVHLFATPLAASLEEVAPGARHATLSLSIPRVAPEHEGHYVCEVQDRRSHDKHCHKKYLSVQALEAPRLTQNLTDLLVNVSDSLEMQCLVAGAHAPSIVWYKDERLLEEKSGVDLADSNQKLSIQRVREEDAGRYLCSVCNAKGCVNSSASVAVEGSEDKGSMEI

VEGFR1 = molecular target: T3, VEGFR1 (UniProt P17948 27-756, limits assumed); experiment: saturation binding experiment (FIG. 5A legend)
T3 construct: also called VEGFR1/Flt1

neuropilin 2 [1] = molecular target: neuropilin 2 (UniProt O60462); experiment: saturation binding experiment
neuropilin 1 [2] = molecular target: neuropilin 1 (UniProt O14786); experiment: saturation binding experiment
neuropilin 2 [3] = molecular target: neuropilin 2 (UniProt O60462); experiment: saturation binding experiment (FIG. 5A' legend)
neuropilin 1 [4] = molecular target: neuropilin 1 (UniProt O14786); experiment: saturation binding experiment (FIG. 5A' legend)

Measured: binding

B1: recombinant VEGF222/NF protein produced in HEK293 cells by ProteoGenix (ligand)
chain: GSHHHHHHSGLEVLFQGPAPMAEGGGQNHHEVVKFMDVYQRSYCHPIETLVDIFQEYPDEIEYIFKPSCVPLMRCGGCCNDEGLECVPTEESNITMQIMRIKPHQGQHIGEMSFLQHNKCECRPKKDRARQENPCGPCSERRKHLFVQDPQTCKCSCKNTDSRCKARQLELNERTCSLCFPFPSDVTSRGGEPGRRKEPPSGFREPDLSPGKTDTERSIQKPRCRHHTITIDRTVLNPET
notes: also called VEGF222 New Form; rVEGF222/NF
binds: VEGFR2 | VEGFR3 | VEGFR1 | neuropilin 2 [1] | neuropilin 1 [2] | neuropilin 2 [3] | neuropilin 1 [4]
